About 3,700 (7%) of roughly 53,000 sequences were called active.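 The calls were made as follows: active = gene knockdowns whose robust z-score for IL-1 alpha signal is at least 2 or at most -2, so actives lie on both sides; inactive = the rest.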 The list shows a part of the results.

The test is described as follows: Components of the Cytosolic LPS Sensing Pathway: Gene Identification via Genome-wide siRNA Screen.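 Also: robust z of the log signal after scaling to non-targeting control siRNA wells of the plate.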 The settings on record: RAW264.7 macrophages, IL-1a HTRF, actives lie on both sides, screened at 100 nM (by protocol), cells primed 5 h with Pam3CSK4 first. Put shortly: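 RAW264.7 mouse macrophages reverse-transfected with single siRNAs (100 nM final) for 48h, primed with Pam3CSK4 for 5 hours, then transfected with LipidA for 24 hour. Supernatant IL-1a read by HTRF; values normalized to negative-control median, log-transformed robust z-scores.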
(In general: Time-resolved FRET reads energy transfer from a long-lived donor to a nearby acceptor.)
As for GGAAAUGCAGAACCGAACATT against Echs1, the z-score was inactive: -0.0673.

GGUGUCGCUUUUUUAUCAATT against Elp1: the z-score is inactive: 0.128. Turning to GGGCUAAGGACAGAAUUACTT against Tusc2, the z-score is inactive: -0.0196.

With GCUCAAACCUUGUCUUUAUTT against Acrv1, the z-score was inactive: -1.11. Under GCAUAAGGACCCUUUGUCATT against Rasl10b stands inactive: -1.27; under GGUAAAUGGUUUAACUACGTT against Tmem117, inactive: -0.68. Under GGUCCUGUUAGUGUUUACCTT against Pde8a stands inactive: -0.123; under CGGAUCCUGGUCACCAUUUTT against Olfr95, inactive: 0.662; under GCUCCUUUUUCCUCUCUUUTT against Defb23, inactive: 0.0502. Under GCUCUCUCUCUUCUUACUGTT against Olfr1160 stands active: -2.16. Take GCAGGAGUCAAACGAGUACTT against Vim: the z-score is inactive: -0.837.

In the case of GGAACCAGUGGCUUAGGAATT against Pclaf, the z-score was inactive: 0.39. Under GCUCCUGAUUUUGACUAUCTT against Macir stands inactive: -0.466; under GGCAGUGGCAAAUCAAGAUTT against Pop1, inactive: 1.19; under CCACAGAAUAAGACAAUAUTT against Fbxo34, active: -3.03.

On to GGCCAACUGGAGAUAGAUATT against Tamm41, for which the z-score is inactive: 1.19. Under GGUCAAGAGGGAAAACUUUTT against Ctps stands inactive: 0.0558; under GGAAAGAGGAAUCAAGAAATT against Slc23a2, inactive: -1.

Turning to GGCUUUCCAGAAGACAGAATT against Cyp2s1, the z-score was inactive: 0.469. Under GGUCAAAAGUUCUGGACAGTT against Spin4 stands active: 5.6; under GUGUCCUGAACACAGCCACTT against Olfr638, inactive: 1.01; under GGACACUGUAAGUGUCAACTT against Rnf186, inactive: 0.402. Under GCUUAAGUGCAGGGACCUATT against Ninl stands inactive: -1.16; under GGAUUUUUACAGAGACAUGTT against Actr6, inactive: -0.821; under GGAGUGACAGUUUUUAUUCTT against Hoxd10, inactive: -0.369. Under GGACAAACUGGACUAUUAUTT against Galntl5 stands inactive: 0.804. Regarding GGAUGAGACCAUCUGCCAATT against Adra1a, the z-score was inactive: 0.323. GCCCAAGGAUGAACUGCAGTT against Olfr108: the z-score was inactive: 0.79. Under GGGUAACAUGAAAGUGAUCTT against Mybbp1a stands inactive: -0.972; under GGUGGAUGAAACUCAGUUUTT against Aldh2, inactive: -0.836.

GGCGGAAUCACAUCACUUCTT against Gm5084: the z-score was inactive: -0.0725. Under GCAGAACCGCAUCAUAUUCTT against Ucn stands inactive: -0.682; under GCAUUGUCGUGUCUUCUCUTT against Tti1, active: -2.13. CCAAACAGGCUUUUUUCCUTT against Snx31: the z-score was inactive: -0.712. Take GGUAACUUGAGAAACAUCCTT against Rtraf: the z-score was inactive: 0.0666.

Take GGUGUAAAUGAGCCUUUUUTT against Gimap5: the z-score was inactive: -0.214.

GCCGCUAUGUUGAUGGACUTT against Zc3h11a: the z-score was inactive: 1.02. Turning to GGAAGAUUUUCUCCAUCUATT against Ttll8, the z-score is inactive: 1.1.

With CCUAGUCCCUCUGUCUCUUTT against Kctd13, the z-score is inactive: -1.79.

On to “GGAUCACUUUUAGUUUUCUTT against C230013L11Rik”, for which the z-score was inactive: -0.0242. Under GGAGCUGAACUCAAUGGUATT against Hoxd3 stands inactive: -1.02; under GGAUUCAAAGCUUCCUUUATT against Eras, inactive: 0.115; under GACCACAAUAUUGAGGAUCTT against Zfp119b, inactive: -0.329.

Turning to CCCGCCUAAUUCUAAAGUCTT against Aqp8, the z-score is inactive: 0.118. Under GGAUCUACAACAUGGAAAUTT against Mrps21 stands inactive: -0.37; under GGAACUUCGUCAUCAACAUTT against Tm2d3, inactive: -0.575. Under GGCCUUGUACUUACACAAGTT against Rspo1 stands inactive: 0.398. Under GCAUGAUAAGGCAGCCGUATT against Amelx stands inactive: 0.333; under GCAAGGUAUUCCAUGCUCATT against Psg27, inactive: -0.616. Regarding GGAUCUGACACACAUGAUCTT against Med16, the z-score is active: 2.3.

As for CCGUGUGAUCAAUGUGAAUTT against Casq1, the z-score was inactive: 0.644. As to GGUUUGUCAUUUCCUGCCCTT against Gimap3, the z-score was inactive: 1.83. Under GCUAAUUUUUUGAUUGCCCTT against Krtap1-5 stands inactive: 1.61; under GCCUAUCCGACAACUUAGUTT against Slc25a17, inactive: 0.136; under GGUUGAAGUCACAAAAGAATT against Prkg1, inactive: -0.619. As to GGCAGAAAGUGAAGAGUUGTT against Kazald1, the z-score is inactive: -0.11. Under GGACGAGGUGGAAAAGUAUTT against Tpm2 stands inactive: -0.711; under CCAAUAACUCGAAACUGGCTT against Cdc16, inactive: 0.628. With GCACAAGUCUAAACAGCUGTT against Fermt1, the z-score was inactive: 0.494.

Take CCUGCUUACGUACAAGACCTT against Tekt1: the z-score is inactive: -0.568.

Turning to GGAGAAAUUAGGAUUACCATT against Pcdhac2, the z-score is inactive: -0.666. UCCUUGCUGUCCUAACCAUTT against Gpr119: the z-score is inactive: 1.64.

On to CCAACAUGAUUGAGUCUUCTT against Lrp5, for which the z-score is inactive: -0.351. Under GGAAAUUCAGCCACAACUCTT against Htr4 stands inactive: 0.463; under GGAAUACCUUUCAUCGAUUTT against Ampd2, inactive: -0.0984; under CCCUCAACCUCCAACCACATT against Ceacam1, active: -2.15. Under GCCUGGCUAGAAAUGUGGUTT against Fpr3 stands active: 3.19; under GCUCCAAAAGUCAAGACCGTT against Safb2, inactive: -0.482. GGCAACUUGAUUGUAAACUTT against Zic2: the z-score was inactive: 0.795. Under GGGAUUUCUUAUCCUGAAATT against Erlin2 stands inactive: 0.271; under CCGUGAUUUAUUUGGAGUGTT against Tpt1, inactive: 0.218; under GGAAAGAAUUGAGAUCUAATT against Rhoq, inactive: 0.728. Under CGAUAAAUAACUCAGCAUGTT against Epha6 stands inactive: 0.647; under GGAUACAAAAAAUGAAGUCTT against Cbr3, inactive: 0.226; under CGUCUUACACGGUUCAAAGTT against Tbc1d10a, inactive: 0.809.

For the sequence GGCUUUUCCAUCGAUGAGUTT against F2rl1, the z-score was inactive: -1.08. Under CGACUUUCUAAGUCUCAACTT against Hyal1 stands inactive: 0.663; under CCAAACUUAAACAUGUUGUTT against Ddx21, inactive: 0.364. Consider GGACAAGUACAAGAAGAAGTT against Rfxap, for which the z-score was inactive: -0.267. Turning to GGAUGUCCUGAAAGAAAAATT against H2-M9, the z-score is inactive: 0.633. Under CGACAAGGGUUCCCUAGAATT against Nkd2 stands inactive: -0.766; under GGAAUAAAUAACAUUUCCCTT against Parvg, inactive: 0.839. Under GAGUUCGAUGUUCAGGAGCTT against Ndrg1 stands inactive: -0.354; under GCCCGAUUUGGCCUAAGUGTT against Paxx, inactive: 0.71; under GCAGGGCAAUAUCUUCUACTT against Chst3, inactive: 0.466. Under CCUCAGCGGAGAAGAUGUATT against Adora1 stands inactive: -1.01; under AGUGAAGAAAUGUUUGACATT against Raet1b, inactive: -1.08; under GCGUAAACAUUGUAACAACTT against Pkib, inactive: 1.84. In the case of GCAUAGGAGAGACCAACAUTT against Zcchc10, the z-score was active: -2.42. Under CAUCCUAGACCUCCAAGCATT against Smr3a stands inactive: -1.64; under GCACCAAUAGAGUUAGAAATT against Oprk1, inactive: 0.817; under GGCUUUCCAAAGAUUAGUCTT against Arl1, inactive: -0.541.

Take CGAAUGCAACAUGUGAUGUTT against Dcaf13: the z-score is inactive: -1.07. Under GCAAAGCUACUGUUCACCATT against Agtr1b stands inactive: -0.451; under GGAGAAGAACAGAACAUGATT against Igf2, active: 2.36. Consider GGUGAUCUGGGUGUUGAUUTT against Slc25a42, for which the z-score was inactive: -1.54.

Consider GGAAAACUCUACCUUAUUGTT against Kif22, for which the z-score was inactive: 1.72. Regarding GCCUUUAACUCCUACGUAGTT against Plxna4, the z-score is inactive: -1.58. Under GCUACAUCAUGAAAGACCCTT against Cdpf1 stands inactive: -0.138; under GGAAGAGAUGGCCAUAUACTT against Abcb1b, inactive: 0.796. Under GCAAUUCUGACAACAGCCUTT against Gpr141b stands inactive: -0.489; under GCGAAGAAGAACCAUCGAUTT against Opalin, inactive: -0.456. Under GGGAGUCAGAGUCAUGUAUTT against Mmrn2 stands inactive: -1.15; under CCAGCACUCAAUCCUGUAATT against Olfr305, inactive: -0.57; under GGAAUACAUAGCACACGGUTT against Apba2, inactive: 1.06. As for GGCAAAAAAUCUCAUUUGUTT against Rock1, the z-score is inactive: 0.137.

With GCAUGACCAGCAGUUCCUUTT against Itsn1, the z-score was inactive: 1.55.
